Reference: the supplement of paper PMC7877785
± gives the uncertainty stated by the source. Many entries were measured with a wide error.

Assay: self-splicing fitness, log relative to wild type (ln ratio); higher = more splicing; Tetrahymena group I intron in knt gene, E. coli kanamycin selection, DiMSum; sequences stand for … in CUCUCU…GGAGGGAAAAGUUAUCAGGCAUGCACCUGGUAGCUAGUCUUUAAACCAAUAGAUUGCAUCGGUUUAAAAGGCAAGACCGUCAAAUUGCGGGAAAGGGGUCAACAGCCGUUCAGUACCAAGUCUCAGGGGAAACUUUGAGAUGGCCUUGCAAAGGGUAUGGUAAUAAGCUGACGGACAUGGUCCUAACCACGCAGCCAAGUCCUAAGUCAACAGAUCUUCUGUUGAUAUGGAUGCAGUUCACAGACUAAAUGUCGGUCGGGGAAGAUGUAUUCUUCUCAUAAGAUAUAGUCGGACCUCUCCUUAAUGGGAGCUAGCGGAUGAAGUGAUGCAACACUGGAGCCGCUGGGAACUAAUUUGUAUGCGAAAGUAUAUUGAUUAGUUUUGGAGUACUCGUGGUCG
Outline: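 Colonies from six replicate transformations of E. coli BL21(DE3) were pooled and amplicon-sequenced on an Illumina HiSeq 2500. The library placed an intron with all eight P1ex-region nucleotides randomised inside the knt kanamycin-resistance gene on pET-22b(+), and cells grew overnight at 37°C or 30°C on LB agar with or without 25 μg/mL kanamycin (plus 100 μg/mL carbenicillin, 50 μM IPTG, 0.2% rhamnose). Fitness is the DiMSum error-weighted combination of wild-type-normalised replicate fold changes, kanamycin versus none.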

Sequence | self-splicing fitness (ln) (30 °C) | self-splicing fitness (ln) (37 °C)
GGAUAGCAAUAUUACGCCGC | -3.72 ± 0.73 | -0.941 ± 0.93
UCGUAGCAAUAUUACGCCCC | -2.28 ± 0.56 | -1.42 ± 0.56
GAGUAGCAAUAUUACGCGCU | -4.44 ± 1 | 
CGUCAGCAAUAUUACGCGGC | -2.47 ± 0.63 | -1.33 ± 1.2
GACCAGCAAUAUUACGUCUA | -1.44 ± 0.085 | -0.724 ± 0.081
CAAUAGCAAUAUUACGUUGG | -1.9 ± 0.099 | -1.3 ± 0.11
CGUGAGCAAUAUUACGCGUG | -2 ± 0.13 | -0.684 ± 0.1
GACUAGCAAUAUUACGGGCC | -3.41 ± 0.58 | 
AGGCAGCAAUAUUACGCUAC |  | -2.48 ± 1.1
AGUGAGCAAUAUUACGCGGG | -2.9 ± 0.55 | 
AUGUAGCAAUAUUACGAAUC | -4.46 ± 0.59 | 
GAGCAGCAAUAUUACGGAUU | -1.2 ± 0.1 | 0.538 ± 0.11
CCGUAGCAAUAUUACGAGCA | -1.93 ± 0.53 | 
GCGCAGCAAUAUUACGCGCU | -3.52 ± 0.54 | -1.41 ± 0.28
AGUAAGCAAUAUUACGGAGC |  | -2.01 ± 0.52
AAUAAGCAAUAUUACGCAAA | -1.62 ± 0.23 | -2.05 ± 0.25
GGGAAGCAAUAUUACGCCCG | -1.02 ± 0.52 | 
UUUGAGCAAUAUUACGCACG | -3.19 ± 0.52 | 
CGAAAGCAAUAUUACGUCAC | -4.66 ± 0.51 | 
AGGGAGCAAUAUUACGAAUA | -3.51 ± 0.76 | -2.55 ± 0.62
AGUUAGCAAUAUUACGCUGG |  | -2.71 ± 0.76
CAGGAGCAAUAUUACGAAAC |  | -2.07 ± 0.79
CUGUAGCAAUAUUACGGAAC | -4.79 ± 0.51 | 
CGGUAGCAAUAUUACGACUC | -1.01 ± 0.32 | 1.23 ± 0.43
ACGGAGCAAUAUUACGCAAC | -3.17 ± 0.54 | 

Sequence | self-splicing fitness (ln) (30 °C) | self-splicing fitness (ln) (37 °C)
UUAGAGCAAUAUUACGUACG | -0.844 ± 0.11 | -1.06 ± 0.17
UCUGAGCAAUAUUACGAUAC | -3.31 ± 0.74 | 
UUCGAGCAAUAUUACGAAUC | -5.31 ± 1 | 
UCGCAGCAAUAUUACGGAUC |  | -3.69 ± 0.73
AAGGAGCAAUAUUACGCACC | -4.26 ± 1 | 
UCUCAGCAAUAUUACGCGCU | -3.23 ± 1 | 
UAAGAGCAAUAUUACGCCCG | -1.65 ± 0.57 | -0.605 ± 0.82
UUAAAGCAAUAUUACGAGUC | -3.69 ± 0.73 | -2.23 ± 0.55
CGCUAGCAAUAUUACGUCGG | -1.6 ± 0.075 | -0.631 ± 0.12
GCUGAGCAAUAUUACGCGCA |  | -0.9 ± 0.61
GGUGAGCAAUAUUACGGGGG |  | -3.15 ± 1
CGGGAGCAAUAUUACGUUCC |  | -1.84 ± 1.1
GCUGAGCAAUAUUACGCUAC | -2.59 ± 0.63 | 
UGGGAGCAAUAUUACGCUGU | -4.4 ± 1 | 
UCGGAGCAAUAUUACGCCAA |  | -1.78 ± 0.58
CGGGAGCAAUAUUACGGGGG |  | -2.23 ± 0.51
UAUGAGCAAUAUUACGCCGU | -2.95 ± 0.77 | 
AGAGAGCAAUAUUACGACCG |  | -0.915 ± 0.56
AGAGAGCAAUAUUACGCGUU |  | -1.51 ± 0.84
AGGGAGCAAUAUUACGAAUU | -3.85 ± 0.63 | 
GCUGAGCAAUAUUACGCACC | -1.97 ± 1.2 | 
GUUAAGCAAUAUUACGGUCA | -0.91 ± 0.098 | -0.943 ± 0.092
CGUGAGCAAUAUUACGGAGC |  | -1.33 ± 0.82
UUGCAGCAAUAUUACGCACC |  | -1.79 ± 1.2
AGCGAGCAAUAUUACGAGAC | -3.31 ± 0.6 | -3.4 ± 0.73

Sequence | self-splicing fitness (ln) (30 °C) | self-splicing fitness (ln) (37 °C)
AACCAGCAAUAUUACGACUA | 0.0905 ± 0.084 | -0.0751 ± 0.079
UGUAAGCAAUAUUACGGUAC |  | -2.2 ± 1.1
AGAGAGCAAUAUUACGCUUU | -3.54 ± 0.41 | -2.52 ± 0.45
GCUUAGCAAUAUUACGGUAG |  | -3.53 ± 0.52
CAGUAGCAAUAUUACGAAAC | -3.21 ± 0.56 | 
GCUUAGCAAUAUUACGAGGC | -3.02 ± 0.62 | 
CGGGAGCAAUAUUACGAGUA |  | -2.52 ± 0.55
AGCCAGCAAUAUUACGAGUC | -5.07 ± 0.71 | 
ACGGAGCAAUAUUACGAAAG |  | -1.05 ± 0.54
UUCUAGCAAUAUUACGUCAU |  | -2.87 ± 0.54
CCCGAGCAAUAUUACGACAG | -4.38 ± 0.72 | 
AGCCAGCAAUAUUACGAGCA | -0.932 ± 0.11 | 0.49 ± 0.14
GGUGAGCAAUAUUACGUCGC |  | -0.663 ± 0.68
GUGGAGCAAUAUUACGACUA | -1.03 ± 0.71 | 
AGGGAGCAAUAUUACGGAUA |  | -1.98 ± 0.58
UCAAAGCAAUAUUACGCCUC | -2.99 ± 0.53 | 
GUAUAGCAAUAUUACGGGAG | -3.39 ± 0.55 | 
GGUGAGCAAUAUUACGGGCC | -4.63 ± 1 | -2 ± 0.57
GAAUAGCAAUAUUACGAAGC | -3.17 ± 0.24 | -2.54 ± 0.22
UUCUAGCAAUAUUACGCUUU | -3.89 ± 0.26 | -1.82 ± 0.22
CAUUAGCAAUAUUACGAUCC | -3.13 ± 1 | 
GAAGAGCAAUAUUACGCUCA | -2.23 ± 0.66 | 
GCUGAGCAAUAUUACGACGC | -4.93 ± 0.58 | 
UUCUAGCAAUAUUACGGAAA | -2.01 ± 0.65 | 
UUCUAGCAAUAUUACGCGAU |  | -2.92 ± 0.61

Sequence | self-splicing fitness (ln) (30 °C) | self-splicing fitness (ln) (37 °C)
CGGGAGCAAUAUUACGGACC | -4.05 ± 1 | -1.32 ± 0.87
CUGCAGCAAUAUUACGCUGC |  | -3.05 ± 0.61
AGCUAGCAAUAUUACGAGAA | -1.99 ± 0.59 | -1.46 ± 0.74
CCGUAGCAAUAUUACGCUUA | -3.52 ± 0.45 | -1.7 ± 0.35
CCGGAGCAAUAUUACGCCGA |  | -3.41 ± 0.6
UCAUAGCAAUAUUACGGGAC | -2.96 ± 0.27 | -3.97 ± 0.39
CGGAAGCAAUAUUACGAAAA | -3.21 ± 1.1 | -2.39 ± 1.1
CUCGAGCAAUAUUACGUGCU |  | -2.8 ± 0.53
CCUCAGCAAUAUUACGAGGC | -4.23 ± 0.59 | 
GGGGAGCAAUAUUACGAGUG |  | -2.52 ± 0.66
UAAGAGCAAUAUUACGCGUU | -3.96 ± 1 | 
CGUUAGCAAUAUUACGCCCG |  | -0.337 ± 1
AGCAAGCAAUAUUACGCUAG | -4.08 ± 0.25 | -2.1 ± 0.22
CAGAAGCAAUAUUACGACCA |  | -3.62 ± 0.52
AUCUAGCAAUAUUACGUCGG | -3.23 ± 0.2 | -2.72 ± 0.27
CUUUAGCAAUAUUACGCUUC | -4.03 ± 0.51 | 
UUCGAGCAAUAUUACGGCCC |  | -0.433 ± 0.67
CAUCAGCAAUAUUACGCGCU | -4.89 ± 0.51 | 
UGCUAGCAAUAUUACGGAGC | -0.54 ± 0.76 | 
GCUGAGCAAUAUUACGGCUC | -4.1 ± 0.61 | 
CGGCAGCAAUAUUACGGGGG | -3 ± 0.13 | -1.86 ± 0.16
CGGGAGCAAUAUUACGACCG | -2.48 ± 1.1 | 0.299 ± 0.68
CCACAGCAAUAUUACGUCUU | -3.88 ± 0.14 | -2.85 ± 0.12
AGUCAGCAAUAUUACGGCUU | -4.02 ± 0.6 | 

Record cards, from the list above:
GCGCAGCAAUAUUACGCGCU reads self-splicing fitness (ln) (30 °C) = -3.52 ± 0.54; self-splicing fitness (ln) (37 °C) = -1.41 ± 0.28
GCUGAGCAAUAUUACGGCUC reads self-splicing fitness (ln) (30 °C) = -4.1 ± 0.61
GGAUAGCAAUAUUACGCCGC reads self-splicing fitness (ln) (30 °C) = -3.72 ± 0.73; self-splicing fitness (ln) (37 °C) = -0.941 ± 0.93
UUCUAGCAAUAUUACGGAAA reads self-splicing fitness (ln) (30 °C) = -2.01 ± 0.65
